The record followed here is PubChem BioAssay AID1487 (National Center for Advancing Translational Sciences (NCATS), 2009).

Values joined by “and” are separate entries in the source; they are usually repeats but may differ in a detail not shown here. Equal values may be shown once. Some of the results follow. These are further read-outs of the screen, such as a control signal, another cell line or another target. No call is given for them. Most of these compounds were active or inconclusive in the main read-out, so they are no random draw. Words in brackets tell the shape of the fitted curve; partial curves, single points and poor fits give uncertain potencies.

For orientation: AC50 means the concentration at which the activity in the assay is half-maximal.

A short description of the experiment: qHTS Assay for Modulators of Lamin A Splicing. The conditions noted are these: HeLa LMNA splicing GFP/RFP minigene ratio, 48 h. The gist of the method:
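Read-out is the ratio of GFP to DsRed2 object intensity, acquired by 488 nm laser-scanning cytometry on HeLa lamin A-EGFP minigene reporter cells. Compound incubation 48 hrs at 37 °C in Opti-MEM with 2% FBS; DMSO 0.5% final.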
A general note: In qHTS, concentration-response curves come from the screen itself.

Setting [1] is: measured here: GFP splicing reporter channel.
Where [2] appears, read: measured here: RFP viability control channel.

Consider `CCOc1ccccc1CNS(=O)(=O)c1ccc(-c2cnc(C3CC3)o2)cc1`, for which the AC50 under setting [1] is 0.0891 µM [rising, full curve, poor fit] and the AC50 under setting [2] was 0.224 µM [rising, partial curve].

`CC(=O)Nc1ccc(NC(=O)c2ccc(C3SCC(=O)N3CCc3ccccc3)cc2)cc1` (stereo not drawn): the AC50 is 11.2 µM [rising, partial curve] under setting [1] and 28.2 µM [rising, single point] under setting [2].

In the case of `COc1cc([N+](=O)[O-])ccc1NC(=O)CSc1nnc(C)c(C)n1`, under setting [2], the AC50 is 1.26 µM [falling, partial curve, poor fit].

Regarding `CCOC(=O)C1=C(c2ccccc2)NC(=S)NC1c1ccc(Cl)c([N+](=O)[O-])c1` (stereo not drawn), the AC50 reads like this: under setting [1], 8.91 µM [rising, partial curve]; under setting [2], 20 µM [rising, partial curve, poor fit].

Regarding `O=c1c2ccccc2nc(-c2ccccc2)n1Cc1ccccc1`, the AC50 reads like this: under setting [1], 7.08 µM [rising, partial curve, poor fit]; under setting [2], 11.2 µM [rising, partial curve].

As for `O=C(NC1CC(=O)N(c2ccc(F)cc2)C1)c1ccc(S(=O)(=O)N2CCOCC2)cc1` (stereo not drawn), the AC50 under setting [2] was 3.98 µM [falling, full curve, poor fit].

Turning to `Cc1cc(C)n(-c2nc(NC(C)C)nc(NC(C)C)n2)n1`, the AC50 reads like this: under setting [1], 35.5 µM [falling, single point]; under setting [2], 25.1 µM [falling, single point].

Take `Cc1nc2c(=O)n(C)c(=O)n(C)c2nc1Cl`: the AC50 is, setting by setting: under setting [1], 3.16 µM [rising, full curve]; under setting [2], 3.55 µM [rising, full curve].

Turning to `COc1ccc(N2CCN(C(c3ccccc3OC)c3nnnn3C3CCCC3)CC2)cc1` (stereo not drawn), the AC50 under setting [2] is 7.08 µM [rising, partial curve].

With `CCOC(=O)c1c(NC(=O)c2ccc(S(=O)(=O)N3CCCC(C)C3)cc2)sc2c1CC(C)(C)NC2(C)C` (stereo not drawn), the AC50 by setting is: under setting [1], 14.1 µM [falling, partial curve]; under setting [2], 25.1 µM [falling, partial curve, poor fit].

With `Cc1ccc(-n2ncc3c(Nc4ccc5c(c4)OCCO5)ncnc32)cc1Cl`, under setting [1], the AC50 is 0.01 µM [falling, full curve, poor fit].

Regarding `O=C(NCC1CCCO1)C1CCC(N2C(=O)c3ccccc3C2=O)CC1` (stereo not drawn), the AC50 under setting [2] was 5.01 µM [rising, single point].

Regarding `COc1ccc(C(C)=O)cc1CSc1nnc(Nc2ccccc2)s1`, the AC50 under setting [2] is 12.6 µM [rising, partial curve].

On to `COc1cc(OC)cc(C(=O)Nc2ccc3c(c2)CCCN3C(=O)c2cccs2)c1`, for which the AC50 under setting [1] is 0.316 µM [falling, partial curve, poor fit].

Regarding `CC(=O)NCC1CCCN(Cc2cn(-c3ccccc3)nc2-c2ccc3c(c2)OCO3)C1` (stereo not drawn), under setting [1], the AC50 was 3.98 µM [falling, partial curve, poor fit].

As for `CNC(=O)c1ccc(NC(=O)c2cccc(C(F)(F)F)c2)cc1`, the AC50 under setting [1] was 0.891 µM [falling, full curve, poor fit].

As to `COCCNC(=S)N/N=C(\C)CCc1ccc2c(c1)OCO2`, the AC50 under setting [1] is 35.5 µM [rising, single point].

As for `COc1ccc(OC)c(NC(=O)CSc2nnnn2-c2ccc3c(c2)OCO3)c1`, the AC50 under setting [2] was 35.5 µM [falling, single point].

As for `CC/C(=C(\c1ccccc1)c1ccc(OCCN(C)C)cc1)c1ccccc1`, the AC50 is 7.94 µM [falling, partial curve] and 28.2 µM [falling, single point] under setting [1]; 7.08 µM [falling, partial curve] and 25.1 µM [falling, partial curve, poor fit] under setting [2].

As for `CC(=O)Nc1ccccc1OCC(=O)NC(C)c1ccc(F)cc1` (stereo not drawn), under setting [2], the AC50 was 10 µM [rising, partial curve].

Regarding `C/C(=N/NC(=O)c1cccc(N2CCCC2=O)c1)c1ccncc1`, under setting [1], the AC50 is 35.5 µM [falling, single point].

As to `CN(C)CCc1c[nH]c2ccc(CC3COC(=O)N3)cc12` (stereo not drawn), the AC50 under setting [1] was 3.16 µM [rising, partial curve].

Take `COc1c(C)cc(C(=O)C2CCCN(C(=O)c3ccc4[nH]ccc4c3)C2)cc1C` (stereo not drawn): the AC50 runs as follows: under setting [1], 0.0316 µM [falling, full curve, poor fit]; under setting [2], 0.0355 µM [falling, full curve, poor fit].

Regarding `COCCn1c(C)nnc1SCC(=O)Nc1ccccc1[N+](=O)[O-]`, the AC50 was 0.0224 µM [falling, full curve, poor fit] under setting [1] and 10 µM [falling, partial curve, poor fit] under setting [2].

Regarding `OC(COCC1CC=CCC1)Cn1cnc2ccccc21` (stereo not drawn), the AC50 under setting [2] was 35.5 µM [rising, single point].

Consider `Fc1ccccc1-c1csc(=Nc2cccnc2)n1CC1CCCO1` (stereo not drawn), for which the AC50 is 10 µM [rising, partial curve] under setting [1] and 12.6 µM [rising, partial curve] under setting [2].

With `Cc1cccc(C(=O)N2CCc3cc(CNC(=O)c4ccco4)ccc32)c1`, the AC50 under setting [2] is 3.55 µM [falling, full curve].

`CCc1oc2ccccc2c1C(=O)c1cc(Br)c(O)c(Br)c1`: the AC50 is, setting by setting: under setting [1], 0.1 µM [falling, full curve, poor fit]; under setting [2], 14.1 µM [falling, single point] and 44.7 nM [rising, full curve, poor fit] and 8.91 µM [rising, partial curve].

With `O=C(N/N=C/c1ccc2c(c1)OCO2)c1cc(-c2ccccc2)nc2ccccc12`, under setting [2], the AC50 was 35.5 µM [rising, single point].

As for `O=C(Nc1cccnc1)c1ccc(S(=O)(=O)c2ccc(Cl)cc2)cc1`, under setting [2], the AC50 was 0.00501 µM [falling, full curve, poor fit].

On to `O=S(=O)(c1ccc2ccccc2c1)N1CCC(c2nc(-c3ccncc3)no2)CC1`, for which the AC50 was 3.98 µM [rising, full curve, poor fit] under setting [1] and 3.16 µM [rising, partial curve] under setting [2].

As for `Cc1ccc(S(=O)(=O)N2CCN(Cc3ccccc3)CC2)c(C)c1N(C)S(=O)(=O)c1ccccc1`, the AC50 under setting [1] is 11.2 µM [rising, partial curve] and the AC50 under setting [2] is 11.2 µM [rising, partial curve].

In the case of `O=C(Nc1ccc2cn[nH]c2c1)c1ccc(S(=O)(=O)N2CCOCC2)cc1`, under setting [1], the AC50 was 1.58 µM [rising, partial curve, poor fit].

As for `CC(=O)N1CCCc2cc(S(=O)(=O)Nc3ccc(Cl)cc3F)ccc21`, the AC50 was 11.2 µM [falling, single point] under setting [1] and 12.6 µM [falling, single point] under setting [2].

In the case of `CN(C)c1ccc(/C=C(\Cl)c2nc3ccccc3s2)cc1`, under setting [2], the AC50 was 35.5 µM [rising, single point].

Turning to `COc1ccc(CC(=O)N2CCc3c([nH]c4ccccc34)C2c2ccc(SC)cc2)cc1` (stereo not drawn), the AC50 under setting [1] was 0.398 µM [rising, partial curve, poor fit] and the AC50 under setting [2] is 0.282 µM [rising, full curve, poor fit].

Consider `CN(C)c1cccc(C(=O)OCc2cc(=O)oc3cc(O)ccc23)c1`, for which the half-maximal activity concentration (AC50) under setting [2] is 35.5 µM [rising, single point].

On to `Cc1ccc2c(Cl)c(C(=O)Nc3cccnc3)sc2c1`, for which the concentration at half-maximal activity (AC50) under setting [1] is 11.2 µM [rising, partial curve] and the AC50 under setting [2] was 12.6 µM [rising, partial curve].

For the molecule `N/C(=N\OC(=O)Cc1ccccc1[N+](=O)[O-])c1cccnc1`, the half-maximal activity concentration (AC50) under setting [2] was 5.01 µM [rising, single point].

`COc1ccccc1NC(=O)CSc1nnc(Cn2nnc(-c3ccccc3)n2)n1-c1ccccc1`: the AC50 is 35.5 µM [rising, single point] under setting [1] and 15.8 µM [rising, single point] under setting [2].

For the molecule `O=C(NCCCN1CCN(c2cccc(Cl)c2)CC1)C1(S(=O)(=O)c2ccc(Cl)cc2)CC1`, the AC50 under setting [2] is 17.8 µM [rising, single point].

As to `COc1ccccc1NC(=O)CSc1nnc(COc2ccc(Cl)cc2)n1Cc1ccco1`, the AC50 under setting [1] is 17.8 µM [rising, partial curve].

`CCOC(=O)c1cccc(NC(=S)NCc2ccc(C)cc2)c1`: under setting [2], the half-maximal activity concentration (AC50) was 1 µM [falling, partial curve, poor fit].

Take `OCCCCNCc1ccc(OCc2ccccc2)cc1`: the AC50 under setting [1] is 6.31 µM [falling, single point].

As to `COc1cc(CN(CCc2c(C)[nH]c3ccc(C)cc23)C(=S)NC(C)(C)C)cc(OC)c1OC`, the AC50 under setting [2] was 14.1 µM [rising, partial curve, poor fit].

For `CCOC(=O)c1c(-c2cccc(C)c2)csc1NC(=O)c1c(-c2ccccc2)noc1C`, the AC50 under setting [1] was 0.891 µM [falling, full curve].

On to `CCOc1ccc(S(=O)(=O)Nc2cccnc2)cc1`, for which the AC50 is, setting by setting: under setting [1], 17.8 µM [rising, partial curve, poor fit]; under setting [2], 20 µM [rising, partial curve].

`Cc1ccc(NC(=O)c2cc(S(=O)(=O)N3CCC4(CC3)OCCO4)ccc2F)cc1`: under setting [2], the AC50 was 15.8 µM [rising, single point].

For `O=C(CN1CCN(c2ccccn2)CC1)Nc1ccc(Cl)c(C(F)(F)F)c1`, under setting [2], the AC50 is 35.5 µM [rising, partial curve].

Turning to `COc1ccccc1N1CCN(c2ccc(Cl)nn2)CC1`, the AC50 was 0.00316 µM [falling, full curve, poor fit] under setting [1] and 0.00355 µM [falling, full curve, poor fit] under setting [2].

Turning to `CCCCCCCn1ccc(=N)cc1`, the AC50 under setting [2] was 10 µM [rising, partial curve].

For `Cc1cc(/C=C(\C#N)C(=O)NCCc2c[nH]c3ccccc23)c(C)n1C`, the AC50 under setting [2] is 11.2 µM [rising, single point].

In the case of `O=C(CSCC(=O)N1CCN(c2ccccc2)CC1)Nc1nc(-c2ccc(Cl)s2)cs1`, the AC50 under setting [2] was 17.8 µM [rising, single point].
